Values from PubChem BioAssay AID504744 (Drosophila RNAi Screening Center, 2011).

- Assay: 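Identify dsRNAs that increase or decrease phospho-dAkt after insulin treatment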 (primary screen)
- Cells: Drosophila Kc167 cells
- Reagent: long dsRNA against Drosophila genes, 250 ng dsRNA per well of a 384-well plate
- Time to read-out: 3 days of knock-down, then overnight serum-free starvation before stimulation
- Conditions: bovine insulin at 387 nM for 10 minutes after 12 h without serum
- Read-out: 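In-cell antibody fluorescence for phospho-dAkt in each well over DNA-dye signal, with log2 residuals expressed as z-scores adjusted for cell count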
- Hit rule: 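Hit in the insulin screen when the two-replicate mean z-score is more extreme than plus or minus 2.5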
The screen tested about 23,000 reagents; below is an unselected part of those with a known target gene and a result. Of all reagents, 98 (0.43%) got an active call. 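Only hit calls are given; the phospho-dAkt signals, z-scores and hit direction were not deposited.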 The numbers tell different reagents against one gene apart. Names joined by + are all predicted targets of the reagent.

gene | reagent no. | call
ND-ASHI (NADH dehydrogenase (ubiquinone) ASHI subunit) | 1 | inactive
CG42525 | 1 | inactive
CG14645 | 1 | inactive
mkg-p + Tpt | 1 | inactive
porin | 1 | inactive
emb (embargoed) | 1 | inactive
Vha68-2 (Vacuolar H[+] ATPase 68 kDa subunit 2) | 1 | inactive
Pcif1 (Phosphorylated CTD-interacting factor 1) | 1 | inactive
erm (earmuff) | 1 | inactive
CG4641 (retired record) | 1 | inactive
msd5 (mitotic spindle density 5) | 1 | inactive
Arf1 (ADP ribosylation factor 1) | 1 | inactive
fmt (fiery mountain) | 1 | inactive
GstE4 (Glutathione S transferase E4) | 1 | inactive
Hn (Henna) | 1 | inactive
CG14154 | 1 | inactive
Ndc1 (Nuclear division cycle 1) | 1 | inactive
CG3634 | 1 | inactive
CG9289 | 1 | inactive
PIP4K (Phosphatidylinositol 5-phosphate 4-kinase) | 1 | inactive
HLH54F | 1 | inactive
ple (pale) | 1 | inactive
CG10332 (retired record) + IM18 | 1 | inactive
CR33315 (pseudo) | 1 | inactive
CG15865 | 1 | inactive
CG13992 | 1 | inactive
Herc4 (HECT and RLD domain containing E3 ubiquitin ligase 4) | 1 | inactive
Galphai (G protein alpha subunit i) | 1 | inactive
mRpS31 (mitochondrial ribosomal protein S31) | 1 | inactive
dachs | 1 | inactive
dachs | 2 | inactive
CG6576 | 1 | inactive
CG9254 | 1 | inactive
Sidpn (similar to Deadpan) | 1 | inactive
CG14062 | 1 | inactive
CG30037 | 1 | inactive
WDR79 (WD repeat domain 79) | 1 | inactive
alpha-Est10 (alpha-Esterase-10) | 1 | inactive
CG6638 | 1 | inactive
CG33476 | 1 | inactive
CG3491 | 1 | inactive
Sce (Sex combs extra) | 1 | inactive
Tmtc4 (Transmembrane O-mannosyltransferase targeting cadherins 4) | 1 | inactive
ncd (non-claret disjunctional) | 1 | inactive
CG14069 | 1 | inactive
RhoGAP68F (Rho GTPase activating protein at 68F) | 1 | inactive
Ir40a (Ionotropic receptor 40a) | 1 | inactive
Ir40a (Ionotropic receptor 40a) | 2 | inactive
CG42808 + CG42807 | 1 | inactive
CG42808 + CG42807 | 2 | inactive
Jhbp5 (Juvenile hormone binding protein 5) | 1 | inactive
Sgf11 (SAGA associated factor 11kDa) | 1 | inactive
CG34282 | 1 | inactive
CG5823 | 1 | inactive
CG14011 | 1 | inactive
CG4815 | 1 | inactive
CG34165 | 1 | inactive
mei-217 + mei-218 | 1 | inactive
Nop60B (Nucleolar protein at 60B) | 1 | inactive
zetaCOP (Coat Protein (coatomer) zeta) | 1 | active
Spg7 (Paraplegin) | 1 | inactive
Nuf2 | 1 | inactive
VhaPPA1-2 (Vacuolar H[+] ATPase PPA1 subunit 2) | 1 | inactive
GstD9 (Glutathione S transferase D9) | 1 | inactive
CG10376 | 1 | inactive
CG15824 | 1 | inactive
bcd (bicoid) | 1 | inactive
CG6209 | 1 | inactive
CG15814 | 1 | inactive
Zwilch | 1 | inactive
CG9692 | 1 | inactive
tef (teflon) | 1 | inactive
tef (teflon) | 2 | inactive
janB (janus B) | 1 | inactive
FucTD (alpha1,3-fucosyltransferase D) | 1 | inactive
CG12985 | 1 | inactive
CG31517 | 1 | inactive
CG5498 | 1 | inactive
CG31681 | 1 | inactive
NPFR (Neuropeptide F receptor) | 1 | inactive
CG34050 (retired record) | 1 | inactive
rt (rotated abdomen) | 1 | inactive
CG31704 | 1 | inactive
betaGlu (beta glucuronidase) | 1 | inactive
CG1304 | 1 | inactive
Pura (Puratrophin-1-like) | 1 | inactive
Pura (Puratrophin-1-like) | 2 | inactive
Pura (Puratrophin-1-like) | 3 | inactive
Pura (Puratrophin-1-like) | 4 | inactive
Pura (Puratrophin-1-like) | 5 | inactive
CG15922 | 1 | inactive
CG14483 | 1 | inactive
CG12253 | 1 | inactive
l(2)41Ab (lethal (2) 41Ab) | 1 | inactive
CG4049 | 1 | inactive
CG7386 | 1 | inactive
ttk (tramtrack) | 1 | inactive
ttk (tramtrack) | 2 | inactive
Mdr50 (Multi drug resistance 50) | 1 | inactive
CG18130 | 1 | inactive
CG42233 | 1 | inactive
CG42233 | 2 | inactive
Sdc (Syndecan) | 1 | inactive
unc-104 (uncoordinated-104) | 1 | inactive
CG1468 | 1 | inactive
CG6357 | 1 | inactive
b (black) | 1 | inactive
CG34029 | 1 | inactive
slou (slouch) | 1 | inactive
CG32161 | 1 | inactive
CG33234 | 1 | inactive
CG17239 | 1 | inactive
CG34459 | 1 | inactive
CG5543 | 1 | inactive
dao (down and out) | 1 | inactive
Rnf146 (Ring finger protein 146) | 1 | inactive
CAP | 1 | inactive
CAP | 2 | inactive
CAP | 3 | inactive
CAP | 4 | inactive
CAP | 5 | inactive
PIG-O (Phosphatidylinositol glycan anchor biosynthesis class O) | 1 | inactive
CG7220 | 1 | inactive
CG7220 | 2 | inactive
crim (crimpled) | 1 | inactive
CG34458 | 1 | inactive
CG12698 | 1 | inactive
CG12229 | 1 | inactive
Map60 (Microtubule-associated protein 60) | 1 | inactive
CG14346 | 1 | inactive
sunz (sungrazer) | 1 | inactive
Hr39 (Hormone receptor-like in 39) | 1 | inactive
CG14556 | 1 | inactive
lili (lilipod) | 1 | inactive
Npc1a (Niemann-Pick type C-1a) | 1 | inactive
Eogt (EGF-domain O-GlcNAc transferase) | 1 | inactive
CheB53b (Chemosensory protein B 53b) | 1 | inactive
FeCH (Ferrochelatase) | 1 | inactive
HipHop (HP1-HOAP-interacting protein) | 1 | inactive
inaE (inactivation no afterpotential E) | 1 | inactive
inaE (inactivation no afterpotential E) | 2 | inactive
inaE (inactivation no afterpotential E) | 3 | inactive
inaE (inactivation no afterpotential E) | 4 | inactive
caly (calypso) | 1 | inactive
Oatp58Db (Organic anion transporting polypeptide 58Db) | 1 | inactive
CG11267 | 1 | inactive
GstE10 (Glutathione S transferase E10) | 1 | inactive
CycG (Cyclin G) | 1 | inactive
dsf (dissatisfaction) | 1 | inactive
CG10064 | 1 | inactive
CG18302 | 1 | inactive
CG32533 | 1 | inactive
CG32533 | 2 | inactive
Cog1 (Component of oligomeric golgi complex 1) | 1 | inactive
CG5969 | 1 | inactive
sdt (stardust) | 1 | inactive
sdt (stardust) | 2 | inactive
sdt (stardust) | 3 | inactive
sdt (stardust) | 4 | inactive
sdt (stardust) | 5 | inactive
sdt (stardust) | 6 | inactive
sdt (stardust) | 7 | inactive
sdt (stardust) | 8 | inactive
sdt (stardust) | 9 | inactive

Active calls, among the entries above:
gene | reagent no. | call
zetaCOP (Coat Protein (coatomer) zeta) | 1 | active
